The record followed here is article PMC4682425.

Sequences of proteins named here, by UniProt entry; tags and fusion partners are left off. A change or cut given only in a name is not applied to a line headed by its entry. Residues count along the entry.
UniProt Q8LDP4, residues 24-201: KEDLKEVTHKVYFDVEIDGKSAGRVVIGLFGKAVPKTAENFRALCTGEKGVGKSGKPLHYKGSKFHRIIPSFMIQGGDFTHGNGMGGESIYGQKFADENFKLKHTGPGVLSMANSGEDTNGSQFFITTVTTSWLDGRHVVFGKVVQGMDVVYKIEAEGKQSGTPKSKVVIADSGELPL
UniProt Q9SP02: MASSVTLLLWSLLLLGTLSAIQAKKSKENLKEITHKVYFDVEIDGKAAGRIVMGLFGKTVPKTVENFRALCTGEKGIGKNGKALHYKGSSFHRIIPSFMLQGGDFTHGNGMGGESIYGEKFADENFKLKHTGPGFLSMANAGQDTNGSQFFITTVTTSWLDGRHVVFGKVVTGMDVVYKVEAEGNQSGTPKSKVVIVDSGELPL
AtCYP20-1 mature protein (amino acids 21-204), yeast two-hybrid bait: residues 21-204 of Q9SP02
AtCYP20-1 full length, BiFC construct in pSPYNE-35S: residues 24-204 of Q9SP02

Assay [1] has as its target AtCYP19-4 mature protein (amino acids 24-201), yeast two-hybrid bait (Arabidopsis thaliana) (UniProt Q8LDP4). Description: two-hybrid; pGBK7 constructs (CYPs) and pGADT7 constructs (AtRCN1, AtGNOM-F, AtGNOM-N) co-transformed in yeast AH109; growth on SD/-WLH + 1.5 mM 3-AT; empty pGADT7 as negative control.
Assay [2] deals with AtCYP20-1 mature protein (amino acids 21-204), yeast two-hybrid bait (Arabidopsis thaliana) (UniProt Q9SP02). Described as above.
The target of assay [3] is AtCYP19-4 full length, BiFC construct in pSPYNE-35S (Arabidopsis thaliana) (UniProt Q8LDP4). Description: split reporter; BiFC: CYPs in pSPYNE-35S and AtRCN1 in pSPYCE-35S co-infiltrated with the P19 silencing suppressor into 4-week-old N. benthamiana leaves; yellow fluorescent protein fluorescence at 24-48 h post-infiltration, confocal microscopy.
Assay [4] has as its target AtCYP20-1 full length, BiFC construct in pSPYNE-35S (Arabidopsis thaliana) (UniProt Q9SP02). Described as above.

Results are given in words; binding and its absence hold for the method and conditions named. For some of these results: In cells and extracts the contact can be indirect. Some results given as binding are weak or reduced against the parent protein; the word gives no strength.

B1: AtRCN1 full-length coding region, yeast two-hybrid prey (protein, UniProt Q38845 1-588)
chain: MAMVDEPLYPIAVLIDELKNDDIQLRLNSIRRLSTIARALGEERTRKELIPFLSENSDDDDEVLLAMAEELGVFIPFVGGIEFAHVLLPPLESLCTVEETCVREKAVESLCKIGSQMKENDLVESFVPLVKRLAGGEWFAARVSACGIFHVAYQGCTDVLKTELRATYSQLCKDDMPMVRRAAASNLGKFATTVESTFLIAEIMTMFDDLTKDDQDSVRLLAVEGCAALGKLLEPQDCVARILPVIVNFSQDKSWRVRYMVANQLYELCEAVGPDCTRTDLVPAYVRLLRDNEAEVRIAAAGKVTKFCRLLNPELAIQHILPCVKELSSDSSQHVRSALASVIMGMAPILGKDSTIEHLLPIFLSLLKDEFPDVRLNIISKLDQVNQVIGIDLLSQSLLPAIVELAEDRHWRVRLAIIEYVPLLASQLGIGFFDDKLGALCMQWLQDKVYSIREAAANNLKRLAEEFGPEWAMQHLVPQVLDMVNNPHYLHRMMVLRAISLMAPVMGSEITCSKFLPVVVEASKDRVPNIKFNVAKLLQSLIPIVDQSVVDKTIRQCLVDLSEDPDVDVRYFANQALNSIDGSTAAQS
In the case of B1, the binding result in assay [1] and in assay [2] was “binds” throughout.

B2: AtRCN1, BiFC construct in pSPYCE-35S (protein, UniProt Q38845 1-588)
chain: MAMVDEPLYPIAVLIDELKNDDIQLRLNSIRRLSTIARALGEERTRKELIPFLSENSDDDDEVLLAMAEELGVFIPFVGGIEFAHVLLPPLESLCTVEETCVREKAVESLCKIGSQMKENDLVESFVPLVKRLAGGEWFAARVSACGIFHVAYQGCTDVLKTELRATYSQLCKDDMPMVRRAAASNLGKFATTVESTFLIAEIMTMFDDLTKDDQDSVRLLAVEGCAALGKLLEPQDCVARILPVIVNFSQDKSWRVRYMVANQLYELCEAVGPDCTRTDLVPAYVRLLRDNEAEVRIAAAGKVTKFCRLLNPELAIQHILPCVKELSSDSSQHVRSALASVIMGMAPILGKDSTIEHLLPIFLSLLKDEFPDVRLNIISKLDQVNQVIGIDLLSQSLLPAIVELAEDRHWRVRLAIIEYVPLLASQLGIGFFDDKLGALCMQWLQDKVYSIREAAANNLKRLAEEFGPEWAMQHLVPQVLDMVNNPHYLHRMMVLRAISLMAPVMGSEITCSKFLPVVVEASKDRVPNIKFNVAKLLQSLIPIVDQSVVDKTIRQCLVDLSEDPDVDVRYFANQALNSIDGSTAAQS
For B2, the binding result in assay [3] and in assay [4] was “binds” throughout.
